Experimental data reported in PubChem BioAssay AID504834 (National Center for Advancing Translational Sciences (NCATS), 2011).
Out of some 320,000 compounds screened, about 22,000 (6.9%) were called active. This list was built around the results that the source calls inconclusive (neither active nor inactive); the mix of calls is not that of the screen. Calls come from the whole dose curve; as a rule, active = well fitted inhibition curve with a large enough effect; inconclusive = small, poorly fitted or top-dose-only effect, or another doubt; inactive = no such curve, though single readings can be large or run the other way. Where the call is inconclusive, the potency comes from a doubtful curve fit.
% is set by controls: 0 for no effect and ±100 for the full control effect; potency is the fitted concentration of half-maximal effect.

Assay: Primary qHTS for delayed death inhibitors of the malarial parasite plastid, 96 hour incubation
Details: P. falciparum luciferase reporter growth; series mostly up to 28.7 µM; activity change, negative = inhibition: at the top concentration
Outline: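 Cell-based qHTS: luciferase-tagged P. falciparum in erythrocytes (2% hematocrit, 0.05% parasitemia final) incubated with compounds for 96 hours, 37 C, 5% CO2; luciferase detection reagent then added and luminescence measured.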
In the case of `Cc1ccc(NC(=O)C2CCN(S(=O)(=O)c3cccs3)CC2)cc1C`, the Potency is reported as inconclusive: 14.7 µM [inhibitor, partial curve]. With `CCN1CNC(=S)N(C(C)c2ccccc2)C1` (configuration not stated) the “activity change, negative = inhibition” value was inactive: 27.2%. With `Cc1ccc(C(=O)NC2CCCCCCC2)cc1S(=O)(=O)N1CCOCC1` the Potency was active: 9.28 µM. For `CN(C)S(=O)(=O)c1cccc(NC(=O)c2cc3c(cc2Cl)N2CCCCCC2=NS3(=O)=O)c1`, the Potency was inconclusive: 10.4 µM [inhibitor, single point]. For `Cc1ccc(NC(=S)NCc2ccc(Cl)cc2)c(OC(F)F)c1`, the Potency was active: 4.15 µM. With `COc1ccc(C(=O)Nc2ccc(NC(=O)c3cccs3)cn2)cc1` the “activity change, negative = inhibition” value was inactive: -12.5%. In the case of `COc1ccc(N(CC(=O)NC2CC3CCC2C3)S(=O)(=O)c2ccccc2)cc1OC` (configuration not stated), the “activity change, negative = inhibition” value is reported as inactive: 45.5%. For `CN(C)/C=C/C(=O)c1ccc(Oc2ncccn2)cc1`, the “activity change, negative = inhibition” value was inactive: 23.3%. In the case of `CC(C(=O)O)N1C(=O)CSc2ncccc21` (configuration not stated), the Potency is reported as inconclusive: 13.1 µM [inhibitor, single point]. With `CCCCc1cc(=O)oc2cc(C)cc(OCC(=O)N[C@@H](CSCc3ccccc3)C(=O)O)c12` the Potency was inconclusive: 18.5 µM [inhibitor, single point]. With `CN1CCN(C(=S)Nc2ccc(Oc3ccccc3)cc2)CC1` the Potency was inconclusive: 4.15 µM [inhibitor, single point]. For `O=C(COCc1cc(-c2ccc3c(c2)OCO3)on1)Nc1cccnc1`, the “activity change, negative = inhibition” value was inactive: -10.8%. In the case of `COc1ccc(NC(=O)Nc2ccccc2F)c([N+](=O)[O-])c1`, the Potency is reported as inconclusive: 2.94 µM [inhibitor, single point]. In the case of `CCOC(=O)COc1c(Br)cc(/C=C2\SC(=O)N(CC(=O)N3CCCC3)C2=O)cc1OC`, the Potency is reported as inconclusive: 4.15 µM [inhibitor, partial curve, poor fit]. In the case of `COc1ccc(/C=C/C(=O)N2CCN(c3ccccn3)CC2)c(OC)c1OC`, the Potency is reported as inconclusive: 11.7 µM [inhibitor, partial curve, poor fit]. With `CCOc1ccc(-c2cccc(NC(=O)COc3ccccc3)c2)nn1` the Potency was inconclusive: 14.7 µM [inhibitor, partial curve, poor fit]. With `COc1ccc(C(=O)c2sc(NC(C)C)nc2N)cc1OC` the Potency was inconclusive: 16.5 µM [inhibitor, partial curve, poor fit]. For `CCOC(=O)N1CCN(C(=O)CSc2nnc(Cc3cccn3C)n2CCc2ccccc2)CC1`, the Potency was inconclusive: 10.4 µM [inhibitor, single point]. In the case of `COc1ccc(C2(CN(C(C)=O)C(C)=O)CCCC2)cc1OC`, the Potency is reported as inconclusive: 11.7 µM [inhibitor, partial curve]. With `CC(C)NC(=O)NC(=O)COC(=O)c1ccccc1Oc1ccccc1` the “activity change, negative = inhibition” value was inactive: -7.67%. In the case of `O=c1[nH]cn[nH]1`, the “activity change, negative = inhibition” value is reported as inactive: 0%. In the case of `O=C(c1ccc(-c2ccccc2)c(F)c1)C1CCCN(CCO)C1` (configuration not stated), the “activity change, negative = inhibition” value is reported as inactive: 12%. In the case of `O=c1[nH]c(C2CCN(S(=O)(=O)c3ccc(S(=O)(=O)NC4CC4)cc3)CC2)nc2c1nnn2Cc1ccc(F)cc1`, the Potency is reported as inconclusive: 18.5 µM [inhibitor, single point]. For `Nc1cc(C(=O)O)c(Oc2ccc(Cl)cc2Cl)cc1C(=O)O`, the Potency was inconclusive: 10.4 µM [inhibitor, single point]. For `CCOC(=O)C1CCN(C(=O)CSc2c3c(nc4ccccc24)CCC3)CC1`, the “activity change, negative = inhibition” value was inactive: 20.9%. In the case of `COCC(C)n1c(COc2ccccc2F)nnc1SCC(=O)c1c(N)n(C)c(=O)n(C)c1=O` (configuration not stated), the Potency is reported as inconclusive: 13.1 µM [inhibitor, single point]. With `CCOC(=O)Cc1nc2ccccc2o1` the Potency was active: 3.29 µM. In the case of `COc1ccc(N2CC(C(=O)Nc3nnc(SCC(=O)N4CCCC4)s3)CC2=O)cc1` (configuration not stated), the Potency is reported as inconclusive: 1.17 µM [inhibitor, full curve, poor fit]. With `CCN=C1S/C(=C\c2ccc(O)c(OCC)c2)C(=O)N1CC` the Potency was inconclusive: 18.5 µM [inhibitor, single point]. For `CC1=CC(C)(C)N=C(Nc2nc(C)c3cc(C)cc(C)c3n2)N1`, the Potency was inconclusive: 0.465 µM [inhibitor, full curve, poor fit]. In the case of `COc1ccc2nc(NC(=O)C3CCCN(S(=O)(=O)c4cccs4)C3)sc2c1` (configuration not stated), the Potency is reported as inconclusive: 0.037 µM [inhibitor, full curve, poor fit]. For `CCOC(=O)C1CCN(C(=O)C2CCN(S(=O)(=O)CC)CC2)CC1`, the Potency was inconclusive: 11.7 µM [inhibitor, single point]. For `O=C(NCCCn1ccnc1)c1csc2ccccc12`, the Potency was active: 10.4 µM. For `COc1ccc(NC(=S)Nc2cc(C(F)(F)F)ccc2F)cc1`, the “activity change, negative = inhibition” value was inactive: 204%. For `CC(C)Cn1c(-c2ccncc2)n[nH]c1=S`, the Potency was active: 3.7 µM. With `O=C(COC(=O)CNC(=O)c1ccc(Cl)cc1Cl)Nc1cccc(S(=O)(=O)N2CCCC2)c1` the “activity change, negative = inhibition” value was inactive: -15.9%. In the case of `CC(C)C(=O)Nc1cccc(C(=O)Nc2cc([N+](=O)[O-])ccc2Cl)c1`, the “activity change, negative = inhibition” value is reported as inactive: 6.56%. For `C[C@H](NC(=O)c1nc[nH]c1C(=O)N1CCN(C(=O)OC(C)(C)C)CC1)C(=O)OCc1ccccc1`, the “activity change, negative = inhibition” value was inactive: 97.6%. With `O=C(NCc1ccncc1)c1nc(-c2cccs2)no1` the “activity change, negative = inhibition” value was inactive: -1.83%. With `O=c1cc(CCl)nc2scc(-c3ccccc3)n12` the Potency was inconclusive: 10.4 µM [inhibitor, single point]. With `CCCC(=O)Nc1nc(-c2ccc(Cl)s2)cs1` the “activity change, negative = inhibition” value was inactive: 115%. With `COc1ccc(-c2cc(-c3nnc(COC(=O)c4ccc(O)cc4)o3)c3ccccc3n2)cc1OC` the Potency was inconclusive: 2.94 µM [inhibitor, full curve, poor fit]. In the case of `COc1ccccc1NS(=O)(=O)c1ccccc1C#N`, the Potency is reported as inconclusive: 18.5 µM [inhibitor, single point]. For `O=C(NC(=S)Nc1ccc(CN2CCCCC2)cc1)c1cccc(OCc2ccccc2)c1`, the Potency was inconclusive: 18.5 µM [inhibitor, single point]. For `O=C(CCSc1nnc(-c2ccncc2)o1)Nc1cccc2ccccc12`, the Potency was inconclusive: 18.5 µM [inhibitor, single point]. In the case of `N#CC1=C(N)S[C@H](C(=O)C23CC4CC(CC(C4)C2)C3)[C@H]1c1ccncc1`, the Potency is reported as active: 4.65 µM. In the case of `COC(=O)CS(=O)(=O)c1cccc2cccnc12`, the Potency is reported as inconclusive: 13.1 µM [inhibitor, partial curve, poor fit].
